Data on one sequence can be found in patent US20190264213A1 (YEDA RESEARCH AND DEVELOPMENT, published 2019).

In this data set the target is T1, AimR (phi3T) (Bacteriophage phi3T) (UniProt P0DOE3).
T1 sequence: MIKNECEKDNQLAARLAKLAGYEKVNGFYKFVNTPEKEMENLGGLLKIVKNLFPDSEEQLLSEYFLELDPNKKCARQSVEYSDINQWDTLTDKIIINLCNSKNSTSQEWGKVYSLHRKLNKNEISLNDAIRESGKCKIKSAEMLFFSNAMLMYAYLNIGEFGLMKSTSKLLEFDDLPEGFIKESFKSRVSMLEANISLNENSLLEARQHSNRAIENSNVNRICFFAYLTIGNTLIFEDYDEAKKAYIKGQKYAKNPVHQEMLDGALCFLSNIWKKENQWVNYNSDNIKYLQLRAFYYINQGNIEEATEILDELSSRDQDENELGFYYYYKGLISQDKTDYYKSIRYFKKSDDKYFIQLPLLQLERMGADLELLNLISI
The data set can be described thus: binding assay. As to conditions: protein in cells, protein details: C-terminal 6xHis.

Where cells or extracts were used, other partners may take part. Negatives hold for the conditions tested. Protein sequences can lack the tags named with them.

As to “TTAAATAATTGAATAGGTAATACATAATACTATCATAGACGTTTGATCCATTGGATCAGGCGTCTTTTCTAATTTTAAGGGAAAGTTCCAGAAATTCAAAAATCAAAAAA (double strand)”, the binding result is, setting by setting: (ChIP-seq in B. subtilis 168, 15 min after phi3T infection, no peptide, single site in phage genome) “binds”; (ChIP-seq with 1 uM SAIRGA arbitrium peptide in medium, binding lost) “no binding”.
